This assay has as its system CD8F1 mice, subcutaneous mammary adenocarcinoma, T/C%. Description: NCI In Vivo Anticancer Drug Screen. Data for tumor model Mammary Adenocarcinoma CD8F1 (subcutaneous) in CD8F1. The note with it: higher T/C = larger tumour. An outline of the steps:
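Ratio of treated to vehicle-control outcome, based on either survival or tumor size, in mice bearing transplantable tumors given the test compound.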

The mark [1] stands for this setting: T/C endpoint: median tumor weight change, dose: 250.0 mg/kg/injection, schedule: Q01DX001 (ip), vehicle: saline with Tween-80.
Setting [2] is: T/C endpoint: median tumor weight change, dose: 500.0 mg/kg/injection, schedule: Q01DX001 (ip), vehicle: saline with Tween-80.
The mark [3] stands for this setting: T/C endpoint: median tumor weight change, dose: 1000.0 mg/kg/injection, schedule: Q01DX001 (ip), vehicle: saline with Tween-80.
The mark [4] stands for this setting: T/C endpoint: median tumor weight (est.), dose: 25.0 mg/kg/injection, schedule: Q07DX005 (ip), vehicle: saline with Tween-80, evaluated on day 30.
[5] abbreviates: T/C endpoint: median tumor weight (est.), dose: 50.0 mg/kg/injection, schedule: Q07DX005 (ip), vehicle: saline with Tween-80, evaluated on day 30.
[6] abbreviates: T/C endpoint: median tumor weight change, dose: 2000.0 mg/kg/injection, schedule: Q01DX001 (ip), vehicle: saline with Tween-80.

The list shows only some results of the screen, not a fair sample: it is rich in T/C values a quarter to a half above the control, in often repeated tests (any T/C) and in doses without a T/C. Further doses and runs are listed elsewhere. T/C gives the treated animals as a percentage of the vehicle group. Schedules are NCI's codes, taken here to give the interval after Q, in days (D) or hours (H), and the number of doses after X. Some T/C values are followed by the survivors on the day toxicity was checked, most often the fifth; without a count, all were alive then. Some entries hold several experiments; the values are given in rising order. Some doses have a count of surviving animals in place of a T/C: the source files T/C as zero there, which appears to mark a toxic dose or a test without result, not a measured value. Survivors were counted at the toxicity check, usually on the fifth day, unless a day is given; later deaths do not show. Some structures stand for samples that the source files as different forms (salt, stereo form or complex); doses refer to the form tested.

Take `N[C@H](C(=O)O)[C@@H]1CC(Cl)=NO1`: the T/C (T/C endpoint: median tumor weight (est.), dose: 8.0 mg/kg/injection, schedule: Q07DX005 (ip), vehicle: saline, evaluated on day 30) is 60 [9 of 10 alive], 69 [6 of 9 alive], 76, 175 % of control; the T/C (T/C endpoint: median tumor weight (est.), dose: 16.0 mg/kg/injection, schedule: Q07DX005 (ip), vehicle: saline, evaluated on day 30) was 51, 51 [9 of 10 alive], 61 [9 of 10 alive], 89 % of control; the T/C (T/C endpoint: median tumor weight (est.), dose: 32.0 mg/kg/injection, schedule: Q07DX005 (ip), vehicle: saline, evaluated on day 30) was 6, 38 [9 of 10 alive], 40, 99 % of control.

Consider `CCCCNc1ccc2nnc(C)n2n1`, for which the T/C (T/C endpoint: median tumor weight change, dose: 62.5 mg/kg/injection, schedule: Q01DX001 (ip), vehicle: other, evaluated on day 32) was 140 % of control; the T/C (T/C endpoint: median tumor weight change, dose: 125.0 mg/kg/injection, schedule: Q01DX001 (ip), vehicle: other, evaluated on day 32) is 145 % of control [9 of 10 alive on day 32]; the T/C (T/C endpoint: median tumor weight change, dose: 250.0 mg/kg/injection, schedule: Q01DX001 (ip), vehicle: DMSO, evaluated on day 30) was 133 % of control [7 of 10 alive on day 30]. The survivor count was 0 of 10 on day 32 (T/C endpoint: median tumor weight change, dose: 250.0 mg/kg/injection, schedule: Q01DX001 (ip), vehicle: other); 3 of 10 on day 30 (T/C endpoint: median tumor weight change, dose: 500.0 mg/kg/injection, schedule: Q01DX001 (ip), vehicle: DMSO); 0 of 10 on day 32 (T/C endpoint: median tumor weight change, dose: 500.0 mg/kg/injection, schedule: Q01DX001 (ip), vehicle: other); 1 of 10 on day 30 (T/C endpoint: median tumor weight change, dose: 1000.0 mg/kg/injection, schedule: Q01DX001 (ip), vehicle: DMSO); 0 of 10 on day 32 (T/C endpoint: median tumor weight change, dose: 1000.0 mg/kg/injection, schedule: Q01DX001 (ip), vehicle: other).

With `Cn1c2ccccc2c2ccc3c(c21)C(=O)C=CC3=O`, the survivor count is, setting by setting: (T/C endpoint: median tumor weight change, dose: 125.0 mg/kg/injection, schedule: Q01DX001 (ip), vehicle: saline with Tween-80) 5 of 10 on day 32; under setting [1], 3 of 10 on day 32; under setting [2], 0 of 10 on day 32; under setting [3], 0 of 10 on day 32.

Consider `NC(C(=O)O)c1ccc(CBr)cc1` (configuration not stated), for which the T/C (T/C endpoint: median tumor weight change, dose: 62.5 mg/kg/injection, schedule: Q01DX001 (ip), vehicle: saline with Tween-80, evaluated on day 37) was 134 % of control [9 of 10 alive on day 37]. In addition, the survivor count runs as follows: under setting [1], 4 of 10 on day 37; under setting [2], 0 of 10 on day 37; under setting [3], 0 of 10 on day 37.

As for `C[C@]12CC[C@H]3[C@@H](CCC4=C[C@@H](OC5OCC(OC6OC(CO)C(O)C(O)C6O)C(O)C5O)CC[C@@]43C=O)[C@@]1(O)CCC2C1=CC(=O)OC1` (some centres not stated), the T/C (T/C endpoint: median tumor weight (est.), dose: 20.0 mg/kg/injection, schedule: Q07DX005 (ip), vehicle: Klucel (hydroxypropylcellulose) (HPC), evaluated on day 30) was 129 % of control.

Turning to `C[C@]12C=CC(=O)C=C1CC[C@@H]1[C@@H]2[C@@H](O)C[C@@]2(C)[C@H]1CC[C@]2(O)C(=O)CO`, the survivor count (T/C endpoint: median tumor weight change, dose: 1600.0 mg/kg/injection, schedule: Q01DX001 (ip), vehicle: Klucel (hydroxypropylcellulose) (HPC)) is recorded as 5 of 10 on day 30.

As for `CN1CCN(CN2C(=O)C3C4C=CC(C3C2=O)C2C3C(=O)N(CN5CCN(C)CC5)C(=O)C3C42)CC1` (configuration not stated), the survivor count is, setting by setting: (T/C endpoint: median tumor weight change, dose: 115.0 mg/kg/injection, schedule: Q01DX005 (ip), vehicle: water) 6 of 10 on day 31; (T/C endpoint: median tumor weight change, dose: 180.0 mg/kg/injection, schedule: Q01DX001 (ip), vehicle: water) 2 of 10 on day 25; (T/C endpoint: median tumor weight change, dose: 206.5 mg/kg/injection, schedule: Q01DX001 (ip), vehicle: water) 0 of 10 on day 25; (T/C endpoint: median tumor weight change, dose: 300.0 mg/kg/injection, schedule: Q01DX001 (ip), vehicle: water) 6 of 10 on day 25; (T/C endpoint: median tumor weight change, dose: 344.2 mg/kg/injection, schedule: Q01DX001 (ip), vehicle: water) 0 of 10 on day 25; (T/C endpoint: median tumor weight change, dose: 500.0 mg/kg/injection, schedule: Q01DX001 (ip), vehicle: water) 2 of 10 on day 25. The survivor count reads like this: (T/C endpoint: median tumor weight change, dose: 573.8 mg/kg/injection, schedule: Q01DX001 (ip), vehicle: water) 0 of 10 on day 25; (T/C endpoint: median tumor weight change, dose: 833.3 mg/kg/injection, schedule: Q01DX001 (ip), vehicle: water) 0 of 10 on day 25; (T/C endpoint: median tumor weight change, dose: 956.3 mg/kg/injection, schedule: Q01DX001 (ip), vehicle: water) 0 of 10 on day 25.

For `NS(=O)(=O)OCCCCCCCOS(N)(=O)=O`, the survivor count under setting [2] was 0 of 10 on day 28 and 2 of 10 on day 36; the survivor count under setting [3] is on record as 0 of 10 on day 36.

As for `CCO/C=C1\SC(=S)N(c2ccccc2C)C1=O`, the T/C is, setting by setting: under setting [4], 136 % of control; under setting [5], 142 % of control.

As to `CC1=C(/C=C/C(C)=C/C=C/C(C)=C/C(=O)O)C(C)(C)CCC1`, the survivor count (T/C endpoint: median tumor weight (est.), dose: 256.0 mg/kg/injection, schedule: Q07DX005 (ip), vehicle: saline with Tween-80) is 6 of 10 on day 30.

For `COc1ccc2nc3cc(Cl)ccc3c(NCCNCCNCCNc3c4ccc(Cl)cc4nc4ccc(OC)cc34)c2c1`, the T/C under setting [4] was 147 % of control and the T/C under setting [5] was 131 % of control.

As to `OC1(CSc2ccccc2)CCCCC1`, the survivor count is 0 of 6 on day 27 and 6 of 10 on day 35 under setting [3]; 0 of 6 on day 27 (T/C endpoint: median tumor weight change, dose: 1500.0 mg/kg/injection, schedule: Q01DX001 (ip), vehicle: saline with Tween-80); 2 of 10 on day 28 and 5 of 10 on day 35 under setting [6].

In the case of `CNC(=O)OCc1c(COC(=O)NC)c(-c2ccc(F)cc2)n2c1CCC2`, the survivor count (T/C endpoint: median tumor weight (est.), dose: 100.0 mg/kg/injection, schedule: Q07DX005 (ip), vehicle: Klucel (hydroxypropylcellulose) (HPC)) is 5 of 10 on day 30.

In the case of `O=C(N/N=C\c1cc(Br)cc(Br)c1O)N/N=C/c1cc(Br)cc(Br)c1O`, the T/C is 136 % of control under setting [5] and 128 % of control (T/C endpoint: median tumor weight (est.), dose: 200.0 mg/kg/injection, schedule: Q07DX005 (ip), vehicle: saline with Tween-80, evaluated on day 30).

With `C=CC12COC(=O)C(=C)C1C1OC(=O)C(=C)C1C(O)C2` (configuration not stated), the T/C (T/C endpoint: mean tumor weight, dose: 2.5 mg/kg/injection, schedule: Q07DX006 (ip), vehicle: saline, evaluated on day 42) was 130 % of control. Under “T/C endpoint: mean tumor weight, dose: 10.0 mg/kg/injection, schedule: Q07DX006 (ip), vehicle: saline”, the survivor count was 3 of 10.

On to `CCc1c(CC(=O)O)c2cc(C)ccc2n1Cc1ccc(Cl)cc1`, for which the survivor count reads like this: (T/C endpoint: median tumor weight change, dose: 500.0 mg/kg/injection, schedule: Q01DX001 (ip), vehicle: Klucel (hydroxypropylcellulose) (HPC)) 0 of 10 on day 24; (T/C endpoint: median tumor weight change, dose: 1000.0 mg/kg/injection, schedule: Q01DX001 (ip), vehicle: Klucel (hydroxypropylcellulose) (HPC)) 1 of 10 on day 24; (T/C endpoint: median tumor weight change, dose: 2000.0 mg/kg/injection, schedule: Q01DX001 (ip), vehicle: Klucel (hydroxypropylcellulose) (HPC)) 0 of 10 on day 24.

In the case of `Nc1nc(=S)c2[nH]cnc2[nH]1`, the survivor count (T/C endpoint: median tumor weight (est.), dose: 32.0 mg/kg/injection, schedule: Q07DX005 (ip), vehicle: Klucel (hydroxypropylcellulose) (HPC)) was 1 of 10.

For the compound `Cc1cn(C2CC3[O][Sn]([c]4ccccc4)([c]4ccccc4)[O]CC3O2)c(=O)[nH]c1=O` (configuration not stated), where the note is “T/C endpoint: median tumor weight (est.), dose: 6.25 mg/kg/injection, schedule: Q07DX005 (ip), vehicle: saline, evaluated on day 30”, the T/C was 138 % of control.

In the case of `CCOC(=O)CNC(=O)CCCCSc1ncnc2nc[nH]c12`, for the setting “T/C endpoint: median tumor weight (est.), dose: 640.0 mg/kg/injection, schedule: Q07DX004 (ip), vehicle: saline, evaluated on day 23”, the T/C was 140 % of control.

In the case of `C/C=C/C=C1/OC(C)=C(C(C)=O)C1=O`, the survivor count is, setting by setting: under setting [1], 6 of 10 on day 28; under setting [2], 0 of 10 on day 28 and 0 of 10 on day 29; under setting [3], 0 of 10 on day 28 and 0 of 10 on day 29; under setting [6], 0 of 10 on day 29 and 1 of 10 on day 28.

Take `CCCCCC#CC1OC12CCCCC2` (configuration not stated): for the setting “T/C endpoint: median tumor weight change, dose: 1600.0 mg/kg/injection, schedule: Q01DX001 (ip), vehicle: saline with Tween-80”, the survivor count is given as 0 of 10 on day 38.

In the case of `O=C(CO)c1ccc([N+](=O)[O-])cc1`, the T/C (T/C endpoint: median tumor weight (est.), dose: 100.0 mg/kg/injection, schedule: Q07DX005 (ip), vehicle: saline with Tween-80, evaluated on day 30) was 126 % of control.

The values above are taken from PubChem BioAssay AID220 (DTP/NCI, 2004).
